Values from PubChem BioAssay AID1259274 (Sanger Institute, 2017)
Here is one part, drawn at random, of 794 reagents. 11 of all reagents (1.4%) count as active. 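Calls rest on knock-down without drug only; synergy scores with anchor drugs were not used for the essential call.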 Unmarked entries are inactive. Further read-outs or replicates are left out here. Not given: the amount of reagent, the time to read-out.

Aim: 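siRNA screen of kinases for partners that act in synergy with targeted drugs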 (primary screen)
System: human RKO colorectal cancer cells
Reagent: siRNA pool against human genes
Conditions: anchor drugs BYL719 at 1 µM, cetuximab at 5 µg/ml or trametinib at 10 nM; DMSO vehicle as the no-drug arm
Measured: 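Viability of cells versus control pool 2 (non-targeting) averaged across replicates; knock-down-only robust z-score; for every anchor drug (BYL719, cetuximab, trametinib) a synergy score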
Reading the numbers: viability z-score, siRNA alone: higher = more viable cells; low values mean essential gene
Active means: 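Essential when the robust viability z-score with siRNA only falls below -3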
Meaning of the calls: active = essential when knocked down alone; inactive = no change alone

CAMK2D (calcium/calmodulin dependent protein kinase II delta) → viability z-score, siRNA alone = 0.145
KDR (kinase insert domain receptor) → viability z-score, siRNA alone = 0.675
KSR2 (kinase suppressor of ras 2) → viability z-score, siRNA alone = -1.95
JAK1 (Janus kinase 1) → viability z-score, siRNA alone = 1.19
EFNA4 (ephrin A4) → viability z-score, siRNA alone = 0.873
PHKA1 (phosphorylase kinase regulatory subunit alpha 1) → viability z-score, siRNA alone = -0.281
MAK (male germ cell associated kinase) → viability z-score, siRNA alone = 0.155
STK40 (serine/threonine kinase 40) → viability z-score, siRNA alone = -0.262
MAP4K3 (mitogen-activated protein kinase kinase kinase kinase 3) → viability z-score, siRNA alone = -0.0703
RIPK1 (receptor interacting serine/threonine kinase 1) → viability z-score, siRNA alone = -0.498
CHUK → viability z-score, siRNA alone = 1.1
SYK (spleen associated tyrosine kinase) → viability z-score, siRNA alone = 1.19

Not a retest: entries from further up.
JAK1 (Janus kinase 1) → viability z-score, siRNA alone = 1.19
EFNA4 (ephrin A4) → viability z-score, siRNA alone = 0.873
